Among all 31,000 sequences or so, about 1,400 (4.5%) were called active.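 How the source made its calls: active means median seed-adjusted z-score above 1 or below -1; inactive means the rest.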 The list shows a part of the results.

A short description of the test: Novel Modifiers of Survival Motor Neuron (SMN) Protein: Gene Identification via Genome-wide siRNA Screen.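 Further: luminescence tracks full-length SMN protein made from the SMN2 reporter.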 The following applies: HEK293T SMN2-luciferase reporter, siRNA knockdown, 72 h; actives lie on both sides. Summed up: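 HEK293T cells stably expressing an SMN2 splicing/cDNA-luciferase reporter were reverse-transfected with a druggable-genome siRNA library and read by luminescence at 72 hours; hits defined by MAD score above 1.0 or below -1.0.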
On to ACAUUGAACGUCCCACGUATT against TUBA3E, for which the median seed-adjusted z-score was inactive: -0.35.

Take CAGGCCCAAUUGUUAUCUATT against TRIM42: the median seed-adjusted z-score is inactive: -0.153.

For CGUAAUAAAUUGUCGAAAATT against EML4, the median seed-adjusted z-score is inactive: 0.958.

CCAUAAACAAGUUAUUCAATT against LDHC: the median seed-adjusted z-score is inactive: 0.537.

Turning to GAAGAGUGUCUGCAAUUCATT against PSMB6, the median seed-adjusted z-score was inactive: -0.579.

For GGCUGUUUGUUCGCAAGCATT against SCD5, the median seed-adjusted z-score was inactive: -0.167.

Take CCUUUAUUCGUGUUGCAUATT against ZNF571: the median seed-adjusted z-score was inactive: 0.175.

For the sequence GAUCCAUAGUACACGAAUATT against ADAM7, the median seed-adjusted z-score is inactive: -0.0638.

As to AGAACACGUUGGAAGUGUATT against MGST3, the median seed-adjusted z-score was inactive: -0.0509.

Consider CUGUAUCUCUAAUCCCUGUTT against KRT33A, for which the median seed-adjusted z-score is inactive: -0.107.

Regarding GGAAACCUCUGGACCUCUATT against ARID1A, the median seed-adjusted z-score is active: -1.14.

In the case of CGUCCACUCCUUCUCCAAATT against MEST, the median seed-adjusted z-score is inactive: -0.0503.

In the case of GGACCCAGUAUUUCAGGAATT against SFXN4, the median seed-adjusted z-score was inactive: -0.174.

With GGAGACUUACUACCUAUAATT against PARD6B, the median seed-adjusted z-score was inactive: 0.315.

Turning to GGAAUACAGGAGCACCUCATT against TTC16, the median seed-adjusted z-score is inactive: 0.

As to GCAUUGAGAUGUUCCACAATT against TUFM, the median seed-adjusted z-score was active: 1.07.

In the case of GGAUUACAGAGCCCAAUAATT against PTPN20A, the median seed-adjusted z-score was inactive: 0.

In the case of GGUCAAGCCUGACAGCAAATT against CDC2L6, the median seed-adjusted z-score was inactive: -0.31.

For the sequence CCAUUGACAUCGAGCCUGATT against GPX1, the median seed-adjusted z-score is inactive: -0.0529.

For GAGCGAGUCUGAUGGGAAUTT against SIX5, the median seed-adjusted z-score is inactive: 0.

For GAAGGACCCAUGAUGCAAATT against EVPL, the median seed-adjusted z-score is inactive: -0.146.

Take CAUUCGGAGAAGUCGCAAATT against DDX59: the median seed-adjusted z-score is inactive: -0.859.

In the case of AAACACCAAUAGUGUCUAATT against VAPB, the median seed-adjusted z-score is inactive: 0.254.

As to GGGAAGUCGUUUAACCAUATT against ZNF8, the median seed-adjusted z-score is inactive: 0.97.

For the sequence GAAUAGAGUUGUUCGGAAUTT against VCP, the median seed-adjusted z-score is inactive: -0.808.

Turning to GGCAGAAGCUAGAUCCCAATT against TPI1, the median seed-adjusted z-score was inactive: 0.447.

GACCCAACCUUUGUAUGCATT against ZHX3: the median seed-adjusted z-score is inactive: -0.0916.

Turning to CCAGUUCUUUCUACGGCAATT against PUM1, the median seed-adjusted z-score was inactive: 0.109.

For GCAGCCUUGUCAUCGACAATT against PDLIM1, the median seed-adjusted z-score is inactive: -0.189.

For the sequence CACCCGCAAUGAUUACAGUTT against STAT5B, the median seed-adjusted z-score was inactive: 0.

GCUAAGAGACGACAUUGAATT against TEKT3: the median seed-adjusted z-score is inactive: 0.0494.

As for GAUUCCGAGUUGCUGCGUATT against PLCD4, the median seed-adjusted z-score is inactive: -0.4.

For CCAGGACUGAAGUAUGGUATT against ENTPD3, the median seed-adjusted z-score was inactive: -0.28.

Regarding GAGUUGCGCUUCAAACAAUTT against SHC1, the median seed-adjusted z-score is inactive: 0.0401.

Consider AAAACUCCGUUUCUAAUUATT against TP53I13, for which the median seed-adjusted z-score is inactive: 0.

In the case of CACUUCAGAUGACAACCUATT against KCTD13, the median seed-adjusted z-score was inactive: -0.273.

As for GGCUUAGUGUGCAUCACAATT against PAPSS1, the median seed-adjusted z-score is inactive: -0.648.

Turning to GAAGUAGGAAGGUUAAGAATT against NUCB2, the median seed-adjusted z-score is inactive: 0.45.

With CACUUAUACUAAGCACCAATT against CCNB1, the median seed-adjusted z-score was inactive: 0.163.

With CGUCAGCGACAAAACGUAATT against UBAC2, the median seed-adjusted z-score is inactive: 0.611.

In the case of UGCUGUUCGUGGAUUUCAATT against CDX4, the median seed-adjusted z-score was inactive: 0.181.

Take GUGUUACCCUGGUGAAAGATT against VNN2: the median seed-adjusted z-score is inactive: -0.583.

In the case of CCCAUGAGAUGAUAAUGGATT against ZNF713, the median seed-adjusted z-score was inactive: -0.0652.

For the sequence GGAGAUUAAUCACCAACUUTT against DERL2, the median seed-adjusted z-score is inactive: -0.27.

CCUUCAAACUGAACUCCAATT against ASL: the median seed-adjusted z-score is inactive: 0.0344.

As for UGAAGGCCGUCAUUCCAGATT against GPER, the median seed-adjusted z-score was inactive: 0.157.

With CGCUGGAUGGUUUUAAGAATT against P4HB, the median seed-adjusted z-score was inactive: -0.0514.

For the sequence GCAUCAAGAGAAUAAAGCUTT against MXD1, the median seed-adjusted z-score is inactive: -0.763.

Turning to GCAGUACAGUGAAUGCCGATT against AKAP8, the median seed-adjusted z-score was inactive: -0.252.

As to GGAUUGUUAUCCGACUGAATT against LRP6, the median seed-adjusted z-score is inactive: -0.116.

CAAUAAAUGUCAUAUUGCUTT against GK2: the median seed-adjusted z-score is inactive: 0.

For the sequence CUACUGCGAGGACAACUAUTT against ABI3, the median seed-adjusted z-score is inactive: 0.114.

In the case of AAACCAUCAUUUACCCUAUTT against SLC25A23, the median seed-adjusted z-score was inactive: 0.325.

Regarding GCACGGUAAUUUUGACAGUTT against CD302, the median seed-adjusted z-score is inactive: 0.0818.

For GGAGCGAAGCUGUCACUGUTT against RHPN1, the median seed-adjusted z-score was inactive: 0.161.

As for GCGUGAGGAUGAUAAACCATT against AK3, the median seed-adjusted z-score is inactive: -0.0313.

On to CACAUAGGCUAUUCCCUAATT against TIPIN, for which the median seed-adjusted z-score was inactive: 0.

GGACAGAUCUUACCCAUCUTT against TRIM59: the median seed-adjusted z-score is inactive: 0.941.

Consider AUAUCGCUGUGAUGCAAAATT against PLA2G12B, for which the median seed-adjusted z-score was inactive: -0.162.

GCAAUGCCUUAUUUAUAAUTT against LIPF: the median seed-adjusted z-score was inactive: 0.54.

In the case of CAGUCUUGUGAAUAUGAUATT against RALGPS2, the median seed-adjusted z-score was inactive: 0.0124.

Take CGAUAAGUUCAAAGACAAATT against NKIRAS1: the median seed-adjusted z-score is inactive: 0.113.

Take CAGACUCUCCGAUCUCUGATT against NRIP3: the median seed-adjusted z-score is inactive: -0.699.

GGACUACCUUUCUCAUCAATT against B3GALTL: the median seed-adjusted z-score was inactive: -0.259.

As to GGAUGUGAAUGGAUCUUGUTT against TAAR8, the median seed-adjusted z-score is inactive: 0.0792.

Regarding UGCCCUUGGCUAUCCCUGATT against SLC30A3, the median seed-adjusted z-score is active: -1.26.

For ACAUGCUUGUCUCAACUCUTT against ZNF575, the median seed-adjusted z-score was inactive: 0.458.

Take AGAAAUGUCUUGUAGUGAATT against SYT14L: the median seed-adjusted z-score is inactive: 0.2.

In the case of CGACAUCUACUGCUGUUUATT against PCDHA7, the median seed-adjusted z-score is inactive: 0.552.

Values taken from PubChem BioAssay AID1347426 (Functional Genomics Laboratory (NCATS/FGL), 2020).
